{
  "sequences": {"note": "Chains of the proteins cited; added tags and fusions are not shown.", "UniProt P04637, whole entry, looked up": "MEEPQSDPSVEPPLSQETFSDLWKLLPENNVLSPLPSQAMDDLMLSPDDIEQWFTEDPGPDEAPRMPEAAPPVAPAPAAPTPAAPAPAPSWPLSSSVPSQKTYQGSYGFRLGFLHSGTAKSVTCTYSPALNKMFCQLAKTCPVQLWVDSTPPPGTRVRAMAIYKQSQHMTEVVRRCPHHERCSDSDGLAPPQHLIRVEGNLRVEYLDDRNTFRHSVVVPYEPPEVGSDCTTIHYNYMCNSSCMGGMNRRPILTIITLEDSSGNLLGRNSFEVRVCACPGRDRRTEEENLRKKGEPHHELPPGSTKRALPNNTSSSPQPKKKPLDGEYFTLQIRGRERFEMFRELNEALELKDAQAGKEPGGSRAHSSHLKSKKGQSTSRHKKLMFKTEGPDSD"},
  "source": "PubChem BioAssay (EPA / NIEHS)",
  "key": {"[1]": {"assay": "TOX21_p53_BLA_p4_viability: Viability Assessment in the Tox21 HCT-116 p53 Agonism Beta-lactamase Assay, Phase 4 (AID 2283597);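 further: hits lower the luminescence signal meaning cytotoxicity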", "procedure,_shortened": "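Readout: ATP luminescence (CellTiter-Glo), measured 30 min after reagent addition at RT. The reagent followed a 2 h CCF4-AM incubation, and the cells had been exposed to compound for 16 h at 37C.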"}, "[2]": {"target": "Cellular tumor antigen p53 (Homo sapiens) (UniProt P04637)", "assay": "TOX21_p53_BLA_p4_ratio: Tox21 HCT-116 p53 Agonism Beta-lactamase Assay, Ratio, Phase 4 (AID 2283601)", "procedure,_shortened": "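HCT116 cells carrying an inducible beta-lactamase reporter were plated at 4000 cells/well, rested 5 h, then exposed to compounds in DMSO (217-fold dilution) for 16 h at 37C. CCF4-AM substrate was loaded 2 h at room temperature; 460/530 nm emission ratio scored gain-of-signal versus DMSO.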"}, "[3]": {"assay": "TOX21_p53_BLA_p5_viability: Viability Assessment in the Tox21 HCT-116 p53 Agonism Beta-lactamase Assay, Phase 5 (AID 2283600)", "procedure,_shortened": "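Workflow: seed 4000 cells per well, wait 5 h, add compounds (DMSO, 217-fold dilution), incubate 16 h, load CCF4-AM 2 h, add CellTiter-Glo, read luminescence after 30 min.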"}, "[4]": {"assay": "Tanguay_ZF_120hpf_JAW_legacy: (Legacy) Oregon State University Tanguay Lab 120 Hour Post-fertilization zebrafish Assay for Jaw Malformation (AID 2283638);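 on AC50: active means more embryos with jaw malformation than DMSO controls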", "procedure,_shortened": "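Steps: dechorionate 4 hpf embryos (pronase); plate 1/well at 6 hpf; add test chemical, 0.64% DMSO final; seal, cover, hold at 28C statically to 120 hpf; score jaw defect presence/absence microscopically. Dead embryos not scored.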"}, "[5]": {"assay": "Tanguay_ZF_120hpf_YSE_legacy: (Legacy) Oregon State University Tanguay Lab 120 Hour Post-fertilization zebrafish Assay for Yolk Sac Edema (AID 2283634);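 further: actives raise the incidence of yolk sac edema above the DMSO baseline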", "procedure,_shortened": "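Dechorionate (pronase, 4 hpf) → place one 6 hpf embryo per well → static compound exposure, sealed and foil-covered, 28C, to 120 hpf → record yolk sac edema as present or absent. Final DMSO 0.64%.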"}, "[6]": {"assay": "Tanguay_ZF_120hpf_EYE_legacy: (Legacy) Oregon State University Tanguay Lab 120 Hour Post-fertilization zebrafish Assay for Eye Malformation (AID 2283636)", "procedure,_shortened": "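Static waterborne exposure of dechorionated zebrafish embryos (strain Tropical 5D), 6 to 120 hpf, sealed plates at 28C, 0.64% DMSO vehicle. Eye malformation is scored as a binary endpoint, with gain of signal analysed relative to DMSO.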"}, "[7]": {"assay": "Tanguay_ZF_120hpf_OTIC_legacy: (Legacy) Oregon State University Tanguay Lab 120 Hour Post-fertilization zebrafish Assay for Otic Vesicle Malformation (AID 2283639)", "procedure,_shortened": "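Wild-type zebrafish larvae, whole-embryo exposure from early stage to 120 hpf at 28C. Binary brightfield scoring of otic vesicle morphology, fitted in the positive direction against the DMSO baseline.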"}, "[8]": {"target": "Cellular tumor antigen p53 (Homo sapiens) (UniProt P04637)", "assay": "TOX21_p53_BLA_p5_ratio: Tox21 HCT-116 p53 Agonism Beta-lactamase Assay, Ratio, Phase 5 (AID 2283599)", "procedure,_shortened": "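HCT-116 cells carrying a p53-inducible beta-lactamase reporter were seeded at 4000 cells/well and dosed after 5 h with compound in DMSO (217-fold dilution). After 16 h at 37C, CCF4-AM substrate was added for 2 h, and the 460/530 nm emission ratio was scored as gain-of-signal versus DMSO.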"}, "[9]": {"assay": "Tanguay_ZF_120hpf_AXIS_legacy: (Legacy) Oregon State University Tanguay Lab 120 Hour Post-fertilization zebrafish Assay for Body Axis Malformation (AID 2283635)", "procedure,_shortened": "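Chorion is removed with pronase at 4 hpf, then single 6 hpf embryos are dosed (final DMSO 0.64%) and held statically at 28C in sealed, foil-covered plates. At 120 hpf body axis malformation is recorded as present or absent.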"}, "[10]": {"assay": "Tanguay_ZF_120hpf_SNOU_legacy: (Legacy) Oregon State University Tanguay Lab 120 Hour Post-fertilization zebrafish Assay for Snout Malformation (AID 2283637)", "procedure,_shortened": "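Dechorionated zebrafish, individually housed from 6 hpf in covered, sealed wells at 28C with 0.64% DMSO vehicle, were examined at 120 hpf for snout malformation. Responses were binary and analysed positive-direction relative to DMSO.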"}},
  "note": "“And” between values parts separate entries of the source, which are not always exact repeats. Equal entries are not always repeated. This list was built around the results that the source calls inconclusive (neither active nor inactive); the mix of calls is not that of the screen. For some of these results: Potencies of inconclusive entries are doubtful fits and often do not repeat. The source made the active and inactive calls. How the source made its calls: active means hit-call score of the fitted dose curve at least 0.9, where 1 is the maximum; inconclusive means response in the unintended direction; inactive means score below 0.9.",
  "data": [
    {"smiles": "CN(C)C(=O)Nc1ccc(Oc2ccc(Cl)cc2)cc1", "values": [
      {"measurement": "outcome", "setting": "[1]", "result": "inactive"},
      {"measurement": "outcome", "setting": "[2]", "result": "inactive"}
    ]},
    {"smiles": "NNC(=O)c1ccncc1", "values": [
      {"measurement": "AC50", "setting": "[1]", "result": "inconclusive: 20.3 µM and inconclusive: 23 µM"},
      {"measurement": "AC50", "setting": "[3]", "result": "inconclusive: 20.3 µM"},
      {"measurement": "outcome", "setting": "[4]", "result": "inactive"}
    ]},
    {"smiles": "O=C1c2ccccc2C(=O)c2c(O)c(O)cc(O)c21", "values": [
      {"measurement": "outcome", "setting": "[1]", "result": "inactive"},
      {"measurement": "AC50", "setting": "[2]", "result": "active: 50.1 µM"}
    ]},
    {"smiles": "CCOC(=O)C=Cc1ccccc1", "values": [
      {"measurement": "AC50", "setting": "[1]", "result": "inconclusive: 46.1 µM"},
      {"measurement": "AC50", "setting": "[2]", "result": "inconclusive: 46.1 µM"}
    ]},
    {"smiles": "OCCC(F)(F)C(F)(F)C(F)(F)C(F)(F)C(F)(F)C(F)(F)C(F)(F)C(F)(F)F", "values": [
      {"measurement": "AC50", "setting": "[1]", "result": "inconclusive: 0.000186 µM"},
      {"measurement": "AC50", "setting": "[5]", "result": "inconclusive: 6.48 µM"},
      {"measurement": "AC50", "setting": "[6]", "result": "inconclusive: 4.58 µM"},
      {"measurement": "AC50", "setting": "[4]", "result": "inconclusive: 11.4 µM"},
      {"measurement": "AC50", "setting": "[7]", "result": "inconclusive: 126 µM"}
    ]},
    {"smiles": "CCCCC(CC)COC(=O)c1ccccc1O", "note": "(stereo not drawn)", "values": [
      {"measurement": "AC50", "setting": "[8]", "result": "inconclusive: 23 µM"}
    ]},
    {"smiles": "OCc1cccc(Oc2ccccc2)c1", "values": [
      {"measurement": "outcome", "setting": "[1]", "result": "inactive"},
      {"measurement": "AC50", "setting": "[2]", "result": "inconclusive: 46.7 µM"},
      {"measurement": "outcome", "setting": "[2]", "result": "inactive"}
    ]},
    {"smiles": "CCn1nc(C)c2c1C(=O)NCC(c1ccc(O)cc1)=N2", "values": [
      {"measurement": "AC50", "setting": "[1]", "result": "inconclusive: 46.1 µM"},
      {"measurement": "outcome", "setting": "[2]", "result": "inactive"},
      {"measurement": "AC50", "setting": "[5]", "result": "inconclusive: 15.5 µM"},
      {"measurement": "outcome", "setting": "[9]", "result": "inactive"}
    ]},
    {"smiles": "O=S(=O)(O)CCCN1CCOCC1", "values": [
      {"measurement": "outcome", "setting": "[8]", "result": "inactive"}
    ]},
    {"smiles": "C1CCC(SSC2CCCCC2)CC1", "values": [
      {"measurement": "AC50", "setting": "[1]", "result": "inconclusive: 46.1 µM"},
      {"measurement": "outcome", "setting": "[2]", "result": "inactive"},
      {"measurement": "AC50", "setting": "[6]", "result": "inconclusive: 132 µM"},
      {"measurement": "AC50", "setting": "[10]", "result": "inconclusive: 2.82 µM"}
    ]},
    {"smiles": "Cc1nc(-c2ccc3c(c2)CCN(CCC2CCC(NC(=O)/C=C/c4ccc(F)cc4)CC2)CC3)no1", "note": "(stereo not drawn)", "values": [
      {"measurement": "AC50", "setting": "[8]", "result": "active: 37.9 µM"}
    ]}
  ]
}
